One assay addresses FRIP8^P955A (human) (UniProt P40818). Briefly: FRET or BRET; single-molecule FRET probes in cell lysates: EYFP on the WW-like domain and ECFP inside the USP domain of ONE chain; excitation 433 nm, emission 460-570 nm; trypsinised lysate as negative control; FRET ratio EYFP/ECFP; the paper speculates that the interaction is intramolecular; 100 μM R18 reduced the FRET signal of FRIP8.

Assay [1] concerns the target FRET-based intramolecular interaction probe of USP8 (FRIP8) (human) (UniProt P40818). The assay is described as above.
The next assay deals with FRIP8^L1063A (human) (UniProt P40818). The assay is described as above.
Another assay has as its target His-tagged FRIP8 (human) (UniProt P40818). In words: FRET or BRET; purified His-tagged FRIP8, with or without labelling by 1 μM Ub-VME (TBS, 1 mM DTT, 37 °C, 30 min); FRET between the WW-like and USP domains of one chain; both purified. A general note: BRET reads energy transfer from a luciferase to a nearby fluorophore.
Assay [2] has as its target FRIP8 with deletion of Ser^718 (ΔS718) (human) (UniProt P40818). In words: FRET or BRET; single-molecule FRET probes in cell lysates: EYFP on the WW-like domain and ECFP inside the USP domain of ONE chain; excitation 433 nm, emission 460-570 nm; trypsinised lysate as negative control; FRET ratio EYFP/ECFP; the paper speculates that the interaction is intramolecular; 100 μM R18 reduced the FRET signal of FRIP8.

Assay [3] addresses T1, GST-tagged USP domain (aa 756–1118) of USP8 (human) (UniProt P40818).
T1 sequence: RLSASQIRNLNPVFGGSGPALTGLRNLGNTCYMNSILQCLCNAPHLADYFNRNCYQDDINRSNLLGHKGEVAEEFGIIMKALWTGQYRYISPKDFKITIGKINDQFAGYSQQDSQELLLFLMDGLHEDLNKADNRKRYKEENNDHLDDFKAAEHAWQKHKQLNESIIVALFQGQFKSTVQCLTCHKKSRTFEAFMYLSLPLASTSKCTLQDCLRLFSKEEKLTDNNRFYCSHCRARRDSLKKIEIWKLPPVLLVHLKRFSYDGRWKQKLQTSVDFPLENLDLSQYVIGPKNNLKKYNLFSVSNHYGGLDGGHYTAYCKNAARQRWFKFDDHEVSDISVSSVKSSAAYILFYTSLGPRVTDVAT
In words: pull-down; HEK293T lysates with the myc-tagged prey incubated with 5 μM GST-tagged USP domain at 4 °C for 2 h, then glutathione sepharose 4B 90 min; washed five times with lysis buffer (50 mM Tris-HCl pH 7.4, 150 mM NaCl, 50 mM NaF, 1% Triton X-100); immunoblotting; only the target purified. A general note: In western blotting, separated proteins are transferred to a membrane and probed.

Residue numbers refer to the chain shown, from its start. Numbers in names are those of the source. Results are given in words; binding and its absence hold for the method and conditions named. For some assays here: In cells and extracts the contact can be indirect. Some entries that bind do so weakly or less than the wild type. For some assays here: Tags and fused reporters may be left off the sequences shown.

B1: FRIP8^P955A (domain or fragment, UniProt P40818 645-1118)
chain: GRIVPGLPSGWAKFLDPITGTFRYYHSPTNTVHMYPPEMAPSSAPPSTPPTHKAKPQIPAERDREPSKLKRSYSSPDITQAIQEEEKRKPTVTPTVNRENKPTCYPKAEISRLSASQIRNLNPVFGGSGPALTGLRNLGNTCYMNSILQCLCNAPHLADYFNRNCYQDDINRSNLLGHKGEVAEEFGIIMKALWTGQYRYISPKDFKITIGKINDQFAGYSQQDSQELLLFLMDGLHEDLNKADNRKRYKEENNDHLDDFKAAEHAWQKHKQLNESIIVALFQGQFKSTVQCLTCHKKSRTFEAFMYLSLALASTSKCTLQDCLRLFSKEEKLTDNNRFYCSHCRARRDSLKKIEIWKLPPVLLVHLKRFSYDGRWKQKLQTSVDFPLENLDLSQYVIGPKNNLKKYNLFSVSNHYGGLDGGHYTAYCKNAARQRWFKFDDHEVSDISVSSVKSSAAYILFYTSLGPRVTDVAT
Regarding B1, the binding result in the assay with FRIP8^P955A (human) is recorded as “binds”.

B2: FRET-based intramolecular interaction probe of USP8 (FRIP8) (domain or fragment, UniProt P40818 645-1118)
chain: B1 chain with A311P
For B2, in assay [1], the binding result is on record as “binds”.

B3: FRIP8^L1063A (domain or fragment, UniProt P40818 645-1118)
chain: B1 chain with A311P, L419A
In the case of B3, the binding result with FRIP8^L1063A (human) was “binds”.

B4: His-tagged FRIP8 (domain or fragment, UniProt P40818 645-1118)
chain: B1 chain with A311P
Consider B4, for which the binding entry with His-tagged FRIP8 (human) is reported as “binds”.

B5: FRIP8 with deletion of Ser^718 (ΔS718) (domain or fragment, UniProt P40818 645-1118)
chain: GRIVPGLPSGWAKFLDPITGTFRYYHSPTNTVHMYPPEMAPSSAPPSTPPTHKAKPQIPAERDREPSKLKRSYSPDITQAIQEEEKRKPTVTPTVNRENKPTCYPKAEISRLSASQIRNLNPVFGGSGPALTGLRNLGNTCYMNSILQCLCNAPHLADYFNRNCYQDDINRSNLLGHKGEVAEEFGIIMKALWTGQYRYISPKDFKITIGKINDQFAGYSQQDSQELLLFLMDGLHEDLNKADNRKRYKEENNDHLDDFKAAEHAWQKHKQLNESIIVALFQGQFKSTVQCLTCHKKSRTFEAFMYLSLPLASTSKCTLQDCLRLFSKEEKLTDNNRFYCSHCRARRDSLKKIEIWKLPPVLLVHLKRFSYDGRWKQKLQTSVDFPLENLDLSQYVIGPKNNLKKYNLFSVSNHYGGLDGGHYTAYCKNAARQRWFKFDDHEVSDISVSSVKSSAAYILFYTSLGPRVTDVAT
On to B5, for which the binding result in assay [2] is listed as “binds”.

B6: myc-tagged USP8^1–714 with deletion of the WW-like domain (aa 645–684) (domain or fragment, UniProt P40818)
chain: MPAVASVPKELYLSSSLKDLNKKTEVKPEKISTKSYVHSALKIFKTAEECRLDRDEERAYVLYMKYVTVYNLIKKRPDFKQQQDYFHSILGPGNIKKAVEEAERLSESLKLRYEEAEVRKKLEEKDRQEEAQRLQQKRQETGREDGGTLAKGSLENVLDSKDKTQKSNGEKNEKCETKEKGAITAKELYTMMTDKNISLIIMDARRMQDYQDSCILHSLSVPEEAISPGVTASWIEAHLPDDSKDTWKKRGNVEYVVLLDWFSSAKDLQIGTTLRSLKDALFKWESKTVLRNEPLVLEGGYENWLLCYPQYTTNAKVTPPPRRQNEEVSISLDFTYPSLEESIPSKPAAQTPPASIEVDENIELISGQNERMGPLNISTPVEPVAASKSDVSPIIQPVPSIKNVPQIDRTKKPAVKLPEEHRIKSESTNHEQQSPQSGKVIPDRSTKPVVFSPTLMLTDEEKARIHAETALLMEKNKQEKELRERQQEEQKEKLRKEEQEQKAKKKQEAEENEITEKQQKAKEEMEKKESEQAKKEDKETSAKRGKEITGVKRQSKSEHETSDAKKSVEDRGKRCPTPEIQKKSTGDVPHTSVTGDSGSGKPFKIKGQPESGILRTGTFREDTDDTERNKAQREPLTRARSEEMPSSAPPSTPPTHKAKPQIPAERDREPSKLK
Regarding B6, in assay [3], the binding result is “no binding (tested: 5 μM GST-tagged USP domain)”.

B7: myc-tagged USP8^1–714 (WT) (domain or fragment, UniProt P40818 1-714)
chain: MPAVASVPKELYLSSSLKDLNKKTEVKPEKISTKSYVHSALKIFKTAEECRLDRDEERAYVLYMKYVTVYNLIKKRPDFKQQQDYFHSILGPGNIKKAVEEAERLSESLKLRYEEAEVRKKLEEKDRQEEAQRLQQKRQETGREDGGTLAKGSLENVLDSKDKTQKSNGEKNEKCETKEKGAITAKELYTMMTDKNISLIIMDARRMQDYQDSCILHSLSVPEEAISPGVTASWIEAHLPDDSKDTWKKRGNVEYVVLLDWFSSAKDLQIGTTLRSLKDALFKWESKTVLRNEPLVLEGGYENWLLCYPQYTTNAKVTPPPRRQNEEVSISLDFTYPSLEESIPSKPAAQTPPASIEVDENIELISGQNERMGPLNISTPVEPVAASKSDVSPIIQPVPSIKNVPQIDRTKKPAVKLPEEHRIKSESTNHEQQSPQSGKVIPDRSTKPVVFSPTLMLTDEEKARIHAETALLMEKNKQEKELRERQQEEQKEKLRKEEQEQKAKKKQEAEENEITEKQQKAKEEMEKKESEQAKKEDKETSAKRGKEITGVKRQSKSEHETSDAKKSVEDRGKRCPTPEIQKKSTGDVPHTSVTGDSGSGKPFKIKGQPESGILRTGTFREDTDDTERNKAQREPLTRARSEEMGRIVPGLPSGWAKFLDPITGTFRYYHSPTNTVHMYPPEMAPSSAPPSTPPTHKAKPQIPAERDREPSKLK
Take B7: in assay [3], the binding result is “binds”.

B8: myc-tagged USP8^1–714 W655S (domain or fragment, UniProt P40818 1-714)
chain: B7 chain with W655S
As for B8, the binding result in assay [3] is “no binding (tested: 5 μM GST-tagged USP domain)”.

These data come from article PMC8576004.
